PubChem BioAssay AID652259, Drosophila RNAi Screening Center, 2013

Aim: 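Genome-wide hunt for genes that control Wingless pathway activity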 (primary screen)
Cell system: Drosophila clone 8 imaginal disc epithelial cells
Reagent: long dsRNA against Drosophila genes
Treatment: pathway stimulated by co-transfected Wingless expression plasmid
Read-out: 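Firefly luciferase from a tcf-site Wingless reporter, measured alongside co-transfected Renilla luciferase that tracks transfection; pathway stimulated by a Wingless plasmid; the firefly-to-Renilla ratio is not deposited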
Direction: firefly reporter light: higher = more Wg reporter light, before normalisation; Renilla control light: higher = more transfected or surviving cells
Rule for the call: 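Strong candidates differ from their plate mean by at least two out of four per-plate statistical tests; weak candidates meet just one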
Calls: active = candidate regulator (raises or lowers reporter); inactive = not a candidate
In all, the deposit lists about 22,000 reagents; shown is an unselected part of those that have a named target and a result. In the full data, 233 (1.1%) were called active. 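Light values are raw, unnormalised plate reads; the ratio scores behind the reporter calls were not deposited.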 A number with no mark means an inactive call. The numbers tell different reagents against one gene apart. A plus sign joins genes that one reagent is predicted to hit. The record does not give: the amount of reagent, the time to read-out, the dose of the treatment.

The opening 11 records, to show the layout:
no.	target	reagent no.	reporter change call, replicate 1	firefly reporter light, replicate 1	firefly reporter light, replicate 2	Renilla control light, replicate 1	Renilla control light, replicate 2
1	ppk16 (GeneID 3885612)	1		1399	6315	528	2684
2	Prtl99C (GeneID 43526)	1		7304		2151	
3	CG13771 (GeneID 33933)	1		1508	4921	944	2464
4	ZnT86D (GeneID 41342)	1		17393		3394	
5	CG14088 (GeneID 40098)	1		16832		5548	
6	RagA-B (GeneID 41071)	1		5047		2487	
7	Six4 (GeneID 40297)	1		12996		4067	
8	CG10674 (GeneID 38602)	1		2101	9744	1424	4101
9	Np (GeneID 35904)	1		4040	5603	1269	2732
10	Np (GeneID 35904)	2		5296	16985	1528	4792
11	Np (GeneID 35904)	3		8.02e5	7.99e5	2.19e5	1.86e5

Main list, repeating the preview:
no.	target	reagent no.	reporter change call, replicate 1	firefly reporter light, replicate 1	firefly reporter light, replicate 2	Renilla control light, replicate 1	Renilla control light, replicate 2
1	ppk16 (GeneID 3885612)	1		1399	6315	528	2684
2	Prtl99C (GeneID 43526)	1		7304		2151	
3	CG13771 (GeneID 33933)	1		1508	4921	944	2464
4	ZnT86D (GeneID 41342)	1		17393		3394	
5	CG14088 (GeneID 40098)	1		16832		5548	
6	RagA-B (GeneID 41071)	1		5047		2487	
7	Six4 (GeneID 40297)	1		12996		4067	
8	CG10674 (GeneID 38602)	1		2101	9744	1424	4101
9	Np (GeneID 35904)	1		4040	5603	1269	2732
10	Np (GeneID 35904)	2		5296	16985	1528	4792
11	Np (GeneID 35904)	3		8.02e5	7.99e5	2.19e5	1.86e5
12	RpLP0-like (GeneID 36058)	1		11290		3648	
13	PGRP-SC1b (GeneID 35861)	1		7389		3256	
14	CG32523 (GeneID 318071)	1		18295		12950	
15	dcma (GeneID 5740672)	1		21085		8442	
16	dcma (GeneID 5740672)	2		4192	7507	1213	3393
17	CG18368 (GeneID 36519)	1		6528		2576	
18	CG16853 (GeneID 34771)	1		2493	4715	917	1724
19	CG15611 (GeneID 36930)	1		13562		2763	
20	CG15611 (GeneID 36930)	2		5948		2603	
21	CG8564 (GeneID 38825)	1		4077		1720	
22	CG1924 (GeneID 32180)	1		23568		11344	
23	CG13671 (GeneID 38932)	1		8500		3696	
24	MetRS-m (GeneID 41733)	1		2928		1346	
25	MetRS-m (GeneID 41733)	2		11820		1878	
26	CG5958 (GeneID 34022)	1		1712	5632	618	1749
27	elg1 (GeneID 39770)	1		3314		1627	
28	CG17068 (GeneID 33024)	1		3536	11433	1970	4200
29	Rrp6 (GeneID 41798)	1		6412		2555	
30	CG31735 (GeneID 318922)	1		17655		7798	
31	Septin4 (GeneID 32646)	1		2411	8618	794	1728
32	CG10887 (GeneID 42399)	1		20768	7.81e5	7186	3.49e5
33	Sgs5 (GeneID 42114)	1		15415		3590	
34	CG10029 (GeneID 40883)	1		19056		7164	
35	chic (GeneID 33834)	1		2873	6491	925	2659
36	Srp14 (GeneID 42436)	1		19816		4907	
37	Peritrophin-15b (GeneID 50432)	1		2818	7152	656	3605
38	Rim2 (GeneID 33350)	1		25718		12200	
39	Rim2 (GeneID 33350)	2		11313		4860	
40	Rim2 (GeneID 33350)	3		5.12e5	5.75e5	1.27e5	1.19e5
41	Usp8 (GeneID 42509)	1		3824	10362	1661	2674
42	CG34029 (GeneID 3885592)	1		16114		8508	
43	CG1116 (GeneID 40622)	1		10443		2184	
44	CG7968 (GeneID 34802)	1		2368	8233	1069	3276
45	CG12126 (GeneID 35805)	1		3837	13766	1085	4012
46	CG2991 (GeneID 33488)	1		9292		4284	
47	sbb (GeneID 44027)	1		16614		12653	
48	sbb (GeneID 44027)	2		5115		2649	
49	asRNA:CR43470 + CG14830	1		1284	6295	939	2904
50	C1GalTA (GeneID 34215)	1		12198		4658	
51	Ufd4 (GeneID 34378)	1		1885	6800	696	3296
52	CR6900 (GeneID 14462413)	1		17580		10864	
53	CG31050 (GeneID 318571)	1		4012		2103	
54	Ankle2 (GeneID 32732)	1		3210	12496	1194	3896
55	Ankle2 (GeneID 32732)	2		9776		7192	
56	CG13060 (GeneID 39802)	1		9172		2967	
57	CG11334 (GeneID 43713)	1		3034		1232	
58	CG11334 (GeneID 43713)	2		22711		13255	
59	TfIIA-L (GeneID 43284)	1	Wg reporter activity lowered	741	2347	790	1526
60	Cyp6a22 (GeneID 49847)	1		11863		3552	
61	Muc4B (GeneID 31368)	1		21334		9546	
62	Muc4B (GeneID 31368)	2		26993		12824	
63	CG1571 (GeneID 31725)	1		16003		8273	
64	Mics1 (GeneID 40898)	1		20209		5506	
65	aft (GeneID 37034)	1		9632		3459	
66	CG14079 (GeneID 40086)	1		10665		3984	
67	eIF2Bgamma (GeneID 36722)	1		16365		5512	
68	Cyp4g15 (GeneID 32093)	1		18520		7573	
69	CG9992 (GeneID 32605)	1		3016	7561	1213	2934
70	CG9992 (GeneID 32605)	2		2.84e5	3.21e5	1.52e5	1.33e5
71	Ercc1 (GeneID 36654)	1		14487		3815	
72	CG1827 (GeneID 35989)	1		5994		1856	
73	antr (GeneID 246647)	1		5.62e5	5.82e5	2.57e5	2.17e5
74	eIF3d2 (GeneID 41475)	1		7440		3494	
75	Nulp1 (GeneID 38897)	1		4040		1367	
76	TwdlR (GeneID 318586)	1		8464		3852	
77	Cand1 (GeneID 34403)	1		7435		2099	
78	CG5653 (GeneID 39024)	1		1101	5760	1351	1609
79	CG31626 + CG8677	1		5.42e5	4.72e5	2.21e5	2.26e5
80	CG31226 (GeneID 318633)	1		2.72e5	3.25e5	95124	89132
81	Sumo (GeneID 33981)	1		17692		3755	
82	Neos (GeneID 38795)	1		3636		1771	
83	PIG-T (GeneID 31772)	1		27594		11300	
84	Nepl20 (GeneID 43412)	1		9968		5223	
85	CG14736 (GeneID 41466)	1		18952		6576	
86	Eglp4 (GeneID 37739)	1		3024	5792	819	2610
87	CG13001 (GeneID 32684)	1		31208		16650	
88	CG13001 (GeneID 32684)	2		7.07e5	7.07e5	2.41e5	66673
89	CG34221 (GeneID 5740574)	1		3682	10867	770	3037
90	CG12923 (GeneID 36026)	1		1959	5778	659	2128
91	CG8924 (GeneID 32557)	1		3586	7099	746	1025
92	CG18190 (GeneID 37179)	1		7154		2471	
93	cGlr1 (GeneID 36744)	1		4087		2304	
